The target of the assay is human ROR2 (human) (UniProt Q01974). Briefly: ELISA, scFv clones. Background: In an ELISA, binding on a coated surface is turned into a signal by an enzyme label.

Sequences of proteins named here, by UniProt entry; tags and fusion partners are left off. A change or cut given only in a name is not applied to a line headed by its entry.
UniProt Q01974: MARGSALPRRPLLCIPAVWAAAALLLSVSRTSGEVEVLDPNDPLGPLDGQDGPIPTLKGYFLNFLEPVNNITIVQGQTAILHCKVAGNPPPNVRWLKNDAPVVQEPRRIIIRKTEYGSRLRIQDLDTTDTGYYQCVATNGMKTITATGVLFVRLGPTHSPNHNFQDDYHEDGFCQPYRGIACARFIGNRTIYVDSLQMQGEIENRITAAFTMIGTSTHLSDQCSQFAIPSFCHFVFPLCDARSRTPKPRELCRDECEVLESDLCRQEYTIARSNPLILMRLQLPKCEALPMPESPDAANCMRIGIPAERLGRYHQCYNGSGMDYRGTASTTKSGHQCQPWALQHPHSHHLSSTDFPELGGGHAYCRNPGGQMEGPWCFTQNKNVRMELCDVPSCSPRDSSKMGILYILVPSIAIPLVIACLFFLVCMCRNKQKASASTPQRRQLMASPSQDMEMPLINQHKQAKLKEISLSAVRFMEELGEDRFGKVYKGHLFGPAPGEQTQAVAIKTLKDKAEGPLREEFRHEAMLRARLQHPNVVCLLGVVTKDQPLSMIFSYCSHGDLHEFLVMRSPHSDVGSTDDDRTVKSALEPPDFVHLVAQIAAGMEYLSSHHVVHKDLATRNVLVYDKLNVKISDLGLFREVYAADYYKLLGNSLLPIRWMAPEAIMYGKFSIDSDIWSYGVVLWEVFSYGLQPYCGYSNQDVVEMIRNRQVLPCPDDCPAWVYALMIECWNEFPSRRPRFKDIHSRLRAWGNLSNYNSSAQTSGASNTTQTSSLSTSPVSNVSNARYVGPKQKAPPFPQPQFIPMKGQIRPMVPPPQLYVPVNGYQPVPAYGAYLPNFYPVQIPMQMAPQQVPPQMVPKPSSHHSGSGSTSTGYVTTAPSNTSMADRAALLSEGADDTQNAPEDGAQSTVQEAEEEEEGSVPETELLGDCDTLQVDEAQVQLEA

Numbering of substitutions follows the chain as printed. Results are given in words; binding and its absence hold for the method and conditions named. Some entries that bind do so weakly or less than the wild type.

B1: h6E6-067 scFv clone (scFv, V domains shown)
VH: EVQLVESGGGLVKPGGSLRLSCAASGFTFSHYGASWVRQAPGKGLEWVSTISSGGGYTHYAGSVKGRFTISRDNAKNSLYLQMNSLRAEDTAVYYCARHPRDFSYAFDYWGQGTTVTVSS
VL: EIVMTQSPATLSVSPGERATLSCKASQDVGHYLAWYQQKPGQAPRLLIYWASTRATGIPARFSGSGSGTEFTLTISSLQSEDFAVYYCQQYNIYPWTFGQGTKVEIK
B1: the binding entry is reported as “binds”.

B2: h6E6-100 scFv clone (scFv, V domains shown)
VH: B1 VH with A34L, A61V, G62D, F107N
VL: B1 VL with L33V, A55H
On to B2, for which the binding result is listed as “binds”.

B3: h6E6-101 scFv clone (scFv, V domains shown)
VH: B1 VH with L18Z, H31F, A34M, H59Y, G62E, F107I
VL: B1 VL with K24R, L33V
On to B3, for which the binding result is listed as “binds”.

B4: h6E6-097 scFv clone (scFv, V domains shown)
VH: B1 VH with H31A, A34M, A61V, G62E, F107M
VL: B1 VL with L33V
For B4, the binding result is reported as “binds”.

B5: h6E6-085 scFv clone (scFv, V domains shown)
VH: B1 VH with S35N, G62T, F107V
VL: B1 VL with K24R, L33V, R54S
Consider B5, for which the binding result is reported as “binds”.

B6: h6E6-079 scFv clone (scFv, V domains shown)
VH: B1 VH with H31S, A34Q, G62P, F107M
VL: B1 VL with L33V, A55H
For the molecule B6, the binding entry is listed as “binds”.

B7: h6E6-070 scFv clone (scFv, V domains shown)
VH: B1 VH with H31Q, A34H, G62H, F107N
VL: B1 VL with K24R
Take B7: the binding entry was “binds”.

B8: h6E6-074 scFv clone (scFv, V domains shown)
VH: B1 VH with H31K, A34T, G62P, F107L
VL: B1 VL with A55H
Turning to B8, the binding entry is on record as “binds”.

B9: h6E6-099 scFv clone (scFv, V domains shown)
VH: B1 VH with H31N, A34M, S35N, G62P, F107M
VL: B1 VL with L33V
As for B9, the binding result is reported as “binds”.

B10: h6E6-081 scFv clone (scFv, V domains shown)
VH: B1 VH with H31S, A34M, S35N, G62D, F107Q
VL: B1 VL with K24R, L33V, A55H
In the case of B10, the binding result is given as “binds”.

B11: h6E6-109 scFv clone (scFv, V domains shown)
VH: B1 VH with H31N, A34T, A61V, G62T, F107M
VL: B1 VL with L33V
In the case of B11, the binding entry is reported as “binds”.

B12: h6E6-096 scFv clone (scFv, V domains shown)
VH: B1 VH with H31N, A34V, G62P, F107Q
VL: B1 VL with K24R, L33V
B12: the binding entry was “binds”.

B13: h6E6-083 scFv clone (scFv, V domains shown)
VH: B1 VH with H31V, A34M, G62P, F107M
VL: B1 VL with L33V
Consider B13, for which the binding result was “binds”.

B14: h6E6-107 scFv clone (scFv, V domains shown)
VH: B1 VH with H31T, G62P, F107L
VL: B1 VL with L33V
On to B14, for which the binding result was “binds”.

B15: h6E6-093 scFv clone (scFv, V domains shown)
VH: B1 VH with H31G, A34M, S35N, A61V, G62E, F107M
VL: B1 VL
B15: the binding entry is given as “binds”.

B16: h6E6-104 scFv clone (scFv, V domains shown)
VH: B1 VH with H31S, A34V, A61V, G62E, F107Q
VL: B1 VL
As for B16, the binding result is on record as “binds”.

B17: h6E6-080 scFv clone (scFv, V domains shown)
VH: B1 VH with A34L, S35N, G62P, F107N
VL: B1 VL with L33V
On to B17, for which the binding result is on record as “binds”.

B18: h6E6-103 scFv clone (scFv, V domains shown)
VH: B1 VH with H31N, A34M, A61V, G62D, F107M
VL: B1 VL
For the molecule B18, the binding result is given as “binds”.

B19: h6E6-090 scFv clone (scFv, V domains shown)
VH: B1 VH with H31T, A34T, G62P, F107L
VL: B1 VL with A55H
In the case of B19, the binding result was “binds”.

B20: h6E6-075 scFv clone (scFv, V domains shown)
VH: B1 VH with H31A, F107Q
VL: B1 VL
As for B20, the binding result was “binds”.

B21: h6E6-077 scFv clone (scFv, V domains shown)
VH: B1 VH with A34T, G62P, F107I
VL: B1 VL with L33V
As for B21, the binding entry is “binds”.

B22: h6E6-106 scFv clone (scFv, V domains shown)
VH: B1 VH with H31S, A34I, H59Y, A61V, G62D, F107L
VL: B1 VL with L33V
For B22, the binding result is listed as “binds”.

B23: h6E6-084 scFv clone (scFv, V domains shown)
VH: B1 VH with H31Q, A34M, A61V, G62Q, F107Q
VL: B1 VL
Turning to B23, the binding result was “binds”.

B24: h6E6-091 scFv clone (scFv, V domains shown)
VH: B1 VH with H31A, A34L, G62Q
VL: B1 VL
In the case of B24, the binding entry is “binds”.

B25: h6E6-110 scFv clone (scFv, V domains shown)
VH: B1 VH with A34V, G62E, F107Q
VL: B1 VL with K24R
Take B25: the binding result is “binds”.

B26: h6E6-069 scFv clone (scFv, V domains shown)
VH: B1 VH with H31K, A34V, A61V, G62E, F107M
VL: B1 VL
With B26, the binding result is reported as “binds”.

B27: h6E6-094 scFv clone (scFv, V domains shown)
VH: B1 VH with H31R, A34Q, G62P, F107L
VL: B1 VL with K24R, L33V
Turning to B27, the binding result is recorded as “binds”.

B28: h6E6-108 scFv clone (scFv, V domains shown)
VH: B1 VH with H31R, A34V, G62E, F107M
VL: B1 VL
With B28, the binding result was “binds”.

B29: h6E6-095 scFv clone (scFv, V domains shown)
VH: B1 VH with H31G, A34V, A61V, G62D, F107L
VL: B1 VL with K24R
For the molecule B29, the binding result is “binds”.

B30: h6E6-068 scFv clone (scFv, V domains shown)
VH: B1 VH with H31S, A34I, G62H, F107L
VL: B1 VL
Turning to B30, the binding entry is reported as “binds”.

B31: h6E6-076 scFv clone (scFv, V domains shown)
VH: B1 VH with H31G, A34M, A61V, G62E, F107L
VL: B1 VL
Regarding B31, the binding entry is “binds”.

B32: h6E6-071 scFv clone (scFv, V domains shown)
VH: B1 VH with A34M, G62E
VL: B1 VL with A55H
On to B32, for which the binding result is reported as “binds”.

B33: h6E6-078 scFv clone (scFv, V domains shown)
VH: B1 VH with H31A, A34S, G62P, F107M
VL: B1 VL with L33V
For the molecule B33, the binding result is “binds”.

B34: h6E6-098 scFv clone (scFv, V domains shown)
VH: B1 VH with H31A, A34V, H59Y, A61V, G62E, F107M
VL: B1 VL with K24R
Regarding B34, the binding entry is reported as “binds”.

B35: h6E6-088 scFv clone (scFv, V domains shown)
VH: B1 VH with H31G, G62P, F107Q
VL: B1 VL with L33V, A55H
As to B35, the binding entry is listed as “binds”.

B36: h6E6-092 scFv clone (scFv, V domains shown)
VH: B1 VH with H31S, A34I, G62A, S63N, F107H
VL: B1 VL with L33V, A55H
Consider B36, for which the binding result is reported as “binds”.

B37: h6E6-102 scFv clone (scFv, V domains shown)
VH: B1 VH with H31K, A34L, A61V, G62E, F107S
VL: B1 VL with L33V
In the case of B37, the binding result is reported as “binds”.

B38: h6E6-073 scFv clone (scFv, V domains shown)
VH: B1 VH with H31P, A34M, H59Y, G62A, F107M
VL: B1 VL with L33V
On to B38, for which the binding entry is listed as “binds”.

B39: h6E6-087 scFv clone (scFv, V domains shown)
VH: B1 VH with H31K, A34M, A61V, G62H, F107N
VL: B1 VL with K24R, L33V
Consider B39, for which the binding result is given as “binds”.

B40: h6E6-082 scFv clone (scFv, V domains shown)
VH: B1 VH with H31K, A34M, G62D, F107M
VL: B1 VL with A55H
As to B40, the binding result is given as “binds”.

B41: h6E6-089 scFv clone (scFv, V domains shown)
VH: B1 VH with H31D, A34I, A61V, G62Q, F107M
VL: B1 VL
Take B41: the binding result is given as “binds”.

B42: h6E6-086 scFv clone (scFv, V domains shown)
VH: B1 VH with H31Q, A34M, A61V, G62T, F107K
VL: B1 VL with L33V
Turning to B42, the binding result is “binds”.

B43: h6E6-111 scFv clone (scFv, V domains shown)
VH: B1 VH with H31T, A34M, S35N, G62E, F107V
VL: B1 VL
As to B43, the binding result is given as “binds”.

B44: h6E6-072 scFv clone (scFv, V domains shown)
VH: B1 VH with H31Q, A34H, G62D, F107Q
VL: B1 VL with A55H
With B44, the binding result is “binds”.

B45: h6E6-105 scFv clone (scFv, V domains shown)
VH: B1 VH with H31T, A34H, A61V, G62A, F107M
VL: B1 VL with K24R, L33V, A55H, T102I
For B45, the binding result was “binds”.

(Values after patent US20260209348A1.)
